Reference: PubChem BioAssay AID686938 (Drosophila RNAi Screening Center, 2013)
Test: 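Fly genes required for calcium entry once internal stores are emptied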 (primary screen). System: Drosophila S2R+ cells. Reagent: long dsRNA against Drosophila genes, about 0.25 µg dsRNA per well, roughly 10,000 cells. Duration: 5 days of knock-down before the calcium assay. Treatment: thapsigargin (SERCA pump blocker) to empty calcium stores; entry signal taken 4 min after adding it. Read-out: 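Duplicate raw fluo-4 intensities per well from a plate reader, at rest and four minutes after thapsigargin emptied calcium stores; entry-to-rest ratio filled for only some wells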. Reading the numbers: calcium entry signal: higher = stronger calcium signal after store depletion; resting calcium signal: higher = higher resting calcium signal. Active means: 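Hit if the duplicate-averaged plate z-score for entry over resting signal is under −3; wells with weak total dye signal (Fmax z < −2) or more than 5 off-targets removed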. Meaning of the calls: active = strongly reduced calcium entry; inactive = no strong reduction.
The deposit covers about 23,000 reagents; this is an unselected part of those that have a named target and a result. In the full data, 75 (0.33%) got an active call. 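Raw plate signals without normalisation; calls rest on plate z-scores that were not deposited; ratio present for only 364 wells.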 Unmarked entries are inactive. Reagents against one gene are numbered here. Names joined by + are all predicted targets of the reagent. Not given: the dose of the treatment.

Gene	reagent	calcium entry signal, replicate 1 (fluorescence units)	calcium entry signal, replicate 2 (fluorescence units)	resting calcium signal, replicate 1 (fluorescence units)	resting calcium signal, replicate 2 (fluorescence units)
Cyp313b1 (GeneID 41019)	1	4.44e7	3.52e7	2.15e7	1.75e7
Hacl (GeneID 37285)	1	3.33e7	2.95e7	1.58e7	1.49e7
daw (GeneID 33474)	1	3.88e7		2.04e7	
CG17193 (GeneID 50044)	1	2.08e7	3.11e7	2.96e7	1.33e7
SIFaR (GeneID 42530)	1	4.09e7	3.41e7	2.32e7	1.75e7
SIFaR (GeneID 42530)	2	2.94e7	3.21e7	3.38e7	1.33e7
wuho (GeneID 31566)	1	2.62e7	3.80e7	1.38e7	1.59e7
CG31326 (GeneID 41728)	1	1.88e7	3.06e7	9.64e6	5.06e7
CG15534 (GeneID 43613)	1	2.95e7	4.62e7	1.55e7	1.88e7
CG42245 + MEP-1	1	5.30e7	4.51e7	2.84e7	1.97e7
CG42245 + MEP-1	2	3.79e7	3.95e7	1.85e7	1.88e7
CG42245 + MEP-1	3	1.98e7	2.10e7	1.13e7	1.05e7
ltl (GeneID 38845)	1	2.98e7	3.80e7	1.58e7	1.65e7
ltl (GeneID 38845)	2	3.01e7	3.55e7	1.52e7	1.60e7
Ccp84Ad (GeneID 40822)	1	5.12e7	3.61e7	2.73e7	1.57e7
Ccp84Ad (GeneID 40822)	2	2.50e7	3.75e7	1.23e7	1.68e7
CG16815 (GeneID 34725)	1	5.86e7	3.30e7	2.41e7	1.52e7
Prat2 (GeneID 38753)	1	5.22e7	3.88e7	3.53e7	1.74e7
CG5597 (GeneID 37789)	1	3.85e7		1.79e7	
CG2076 (GeneID 32041)	1	3.30e7	4.14e7	1.66e7	1.85e7
oys (GeneID 36045)	1	2.10e7	5.04e7	1.30e7	4.99e7
oys (GeneID 36045)	2	5.02e7	3.79e7	2.11e7	1.72e7
RpS28a (GeneID 43564)	1	3.94e7	5.60e7	2.00e7	2.64e7
CG5819 (GeneID 37547)	1	4.75e7	4.95e7	2.21e7	2.27e7

Entries above whose target name starts with O or o (2):
Gene	reagent	calcium entry signal, replicate 1 (fluorescence units)	calcium entry signal, replicate 2 (fluorescence units)	resting calcium signal, replicate 1 (fluorescence units)	resting calcium signal, replicate 2 (fluorescence units)
oys (GeneID 36045)	1	2.10e7	5.04e7	1.30e7	4.99e7
oys (GeneID 36045)	2	5.02e7	3.79e7	2.11e7	1.72e7
